According to PubChem BioAssay AID186 (DTP/NCI, 2004):
Shown are survivors of the treated group in tumour-free mice. Survivors were counted at the toxicity check, usually on the fifth day, unless a day is given; later deaths do not show. Schedules are NCI's codes, read here as Q, the interval in days (D) or hours (H), X, the number of doses. Some doses were run more than once; the results are listed from low to high.

Test system: B6D2F1 mice, nontumored toxicity test, survival
Test: NCI In Vivo Anticancer Drug Screen. Data for tumor model Nontumored Animals (Toxicity Test) in B6D2F1 (BDF1) mice

With `COC(=O)[C@@]12OC[C@]34[C@H]([C@@H](O)[C@@H]1O)[C@@]1(C)CC(=O)C(O)=C(C)[C@@H]1C[C@H]3OC(=O)[C@H](OC(=O)/C=C(\C)C(C)C)[C@@H]24` the survivor count (dose: 0.03 mg/kg/injection, schedule: Q01DX009 (ip), vehicle: saline + alcohol) was 8 of 8, the survivor count (dose: 0.03 mg/kg/injection, schedule: Q01DX009 (ip), vehicle: saline with Tween-80) was 8 of 8 and the survivor count (dose: 0.03 mg/kg/injection, schedule: Q03HX024 (ip), vehicle: saline + alcohol) was 8 of 8. For the same compound, the survivor count (dose: 0.05 mg/kg/injection, schedule: Q01DX005 (iv), vehicle: saline + alcohol) was 8 of 8, the survivor count (dose: 0.05 mg/kg/injection, schedule: Q01DX009 (ip), vehicle: saline + alcohol) was 7 of 7 and the survivor count (dose: 0.06 mg/kg/injection, schedule: Q01DX009 (ip), vehicle: saline + alcohol) was 8 of 8. The survivor count (dose: 0.06 mg/kg/injection, schedule: Q01DX009 (ip), vehicle: saline with Tween-80) was 8 of 8, the survivor count (dose: 0.06 mg/kg/injection, schedule: Q01DX009 (sc), vehicle: saline + alcohol) was 8 of 8 and the survivor count (dose: 0.06 mg/kg/injection, schedule: Q03HX016 (ip), vehicle: saline + alcohol) was 8 of 8. The survivor count (dose: 0.06 mg/kg/injection, schedule: Q03HX024 (ip), vehicle: saline + alcohol) was 8 of 8, the survivor count (dose: 0.1 mg/kg/injection, schedule: Q01DX005 (iv), vehicle: saline + alcohol) was 8 of 8 and the survivor count (dose: 0.1 mg/kg/injection, schedule: Q01DX009 (ip), vehicle: saline + alcohol) was 8 of 8. For the same compound, the survivor count (dose: 0.13 mg/kg/injection, schedule: Q01DX009 (ip), vehicle: saline + alcohol) was 8 of 8, the survivor count (dose: 0.13 mg/kg/injection, schedule: Q01DX009 (ip), vehicle: saline with Tween-80) was 8 of 8 and the survivor count (dose: 0.13 mg/kg/injection, schedule: Q01DX009 (sc), vehicle: saline + alcohol) was 8 of 8. For the same compound, the survivor count (dose: 0.13 mg/kg/injection, schedule: Q03HX008 (ip), vehicle: saline + alcohol) was 8 of 8, the survivor count (dose: 0.13 mg/kg/injection, schedule: Q03HX016 (ip), vehicle: saline + alcohol) was 8 of 8 and the survivor count (dose: 0.13 mg/kg/injection, schedule: Q03HX024 (ip), vehicle: saline + alcohol) was 8 of 8. For the same compound, the survivor count (dose: 0.2 mg/kg/injection, schedule: Q01DX005 (iv), vehicle: saline + alcohol) was 8 of 8, the survivor count (dose: 0.2 mg/kg/injection, schedule: Q01DX009 (ip), vehicle: saline + alcohol) was 8 of 8 and the survivor count (dose: 0.25 mg/kg/injection, schedule: Q01DX009 (ip), vehicle: saline + alcohol) was 8 of 8. The survivor count (dose: 0.25 mg/kg/injection, schedule: Q01DX009 (ip), vehicle: saline with Tween-80) was 8 of 8, the survivor count (dose: 0.25 mg/kg/injection, schedule: Q01DX009 (sc), vehicle: saline + alcohol) was 8 of 8 and the survivor count (dose: 0.25 mg/kg/injection, schedule: Q03HX008 (ip), vehicle: saline + alcohol) was 7 of 8. The survivor count (dose: 0.25 mg/kg/injection, schedule: Q03HX016 (ip), vehicle: saline + alcohol) was 8 of 8, the survivor count (dose: 0.25 mg/kg/injection, schedule: Q03HX024 (ip), vehicle: saline + alcohol) was 7 of 8 and the survivor count (dose: 0.25 mg/kg/injection, schedule: Q04DX003 (ip), vehicle: saline + alcohol) was 8 of 8. The survivor count (dose: 0.4 mg/kg/injection, schedule: Q01DX005 (iv), vehicle: saline + alcohol) was 8 of 8, the survivor count (dose: 0.4 mg/kg/injection, schedule: Q01DX009 (ip), vehicle: saline + alcohol) was 8 of 8 and the survivor count (dose: 0.44 mg/kg/injection, schedule: Q01DX009 (ip), vehicle: saline with Tween-80) was 10 of 10. The survivor count (dose: 0.5 mg/kg/injection, schedule: Q01DX009 (ip), vehicle: saline + alcohol) was 8 of 8, the survivor count (dose: 0.5 mg/kg/injection, schedule: Q01DX009 (ip), vehicle: saline with Tween-80) was 8 of 8 and the survivor count (dose: 0.5 mg/kg/injection, schedule: Q01DX009 (oral), vehicle: saline + alcohol) was 7 of 8 and 8 of 8. The survivor count (dose: 0.5 mg/kg/injection, schedule: Q01DX009 (sc), vehicle: saline + alcohol) was 8 of 8, the survivor count (dose: 0.5 mg/kg/injection, schedule: Q03HX008 (ip), vehicle: saline + alcohol) was 0 of 8 and the survivor count (dose: 0.5 mg/kg/injection, schedule: Q03HX016 (ip), vehicle: saline + alcohol) was 0 of 8. The survivor count (dose: 0.5 mg/kg/injection, schedule: Q03HX024 (ip), vehicle: saline + alcohol) was 0 of 8, the survivor count (dose: 0.5 mg/kg/injection, schedule: Q04DX003 (ip), vehicle: saline + alcohol) was 8 of 8 and the survivor count (dose: 0.5 mg/kg/injection, schedule: Q08DX002 (ip), vehicle: saline + alcohol) was 8 of 8. For the same compound, the survivor count (dose: 0.66 mg/kg/injection, schedule: Q01DX009 (ip), vehicle: saline with Tween-80) was 10 of 10, the survivor count (dose: 0.67 mg/kg/injection, schedule: Q01DX009 (ip), vehicle: saline with Tween-80) was 10 of 10 and the survivor count (dose: 0.8 mg/kg/injection, schedule: Q01DX005 (ip), vehicle: saline + alcohol) was 8 of 8. For the same compound, the survivor count (dose: 0.8 mg/kg/injection, schedule: Q01DX005 (iv), vehicle: saline + alcohol) was 8 of 8, the survivor count (dose: 0.8 mg/kg/injection, schedule: Q01DX009 (ip), vehicle: saline + alcohol) was 8 of 8 and the survivor count (dose: 1.0 mg/kg/injection, schedule: Q01DX001 (ip), vehicle: saline + alcohol) was 8 of 8.
